Results published in article PMC10598014.
Like-named read-outs stand apart in the source and are kept apart here. No constants are given. Whether binding was seen depends on the method and setting. Binding seen in cells or lysates may run through a third protein. A yes stands for co-enrichment or nearness to the bait. Other partners may have been found. For some assays here: A no says only that the protein was not detected with the bait. For some assays here: Tags and fused reporters may be left off the sequences shown. Blank lines part the entries; values can stand above or below the molecule they belong to.

The chains behind the UniProt entries cited, without tags or fusion partners.
UniProt P51003: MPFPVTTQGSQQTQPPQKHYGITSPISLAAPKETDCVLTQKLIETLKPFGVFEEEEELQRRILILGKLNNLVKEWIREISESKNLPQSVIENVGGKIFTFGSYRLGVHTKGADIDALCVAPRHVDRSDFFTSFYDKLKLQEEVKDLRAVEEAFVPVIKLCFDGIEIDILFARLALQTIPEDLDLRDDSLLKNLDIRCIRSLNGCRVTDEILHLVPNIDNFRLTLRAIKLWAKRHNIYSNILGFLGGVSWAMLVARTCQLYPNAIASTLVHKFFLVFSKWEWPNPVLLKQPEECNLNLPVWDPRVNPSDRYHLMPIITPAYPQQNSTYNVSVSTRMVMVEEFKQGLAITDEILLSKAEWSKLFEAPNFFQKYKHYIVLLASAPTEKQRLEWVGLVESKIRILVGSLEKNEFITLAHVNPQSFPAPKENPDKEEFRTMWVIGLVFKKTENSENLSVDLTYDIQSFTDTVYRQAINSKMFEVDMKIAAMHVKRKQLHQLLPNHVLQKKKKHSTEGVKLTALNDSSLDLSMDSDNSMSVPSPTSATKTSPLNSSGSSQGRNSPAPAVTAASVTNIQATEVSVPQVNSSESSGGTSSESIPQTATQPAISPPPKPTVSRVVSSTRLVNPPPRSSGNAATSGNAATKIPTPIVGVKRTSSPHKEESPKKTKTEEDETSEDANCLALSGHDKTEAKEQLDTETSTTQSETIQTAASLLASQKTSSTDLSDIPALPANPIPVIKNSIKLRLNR
UniProt Q16630: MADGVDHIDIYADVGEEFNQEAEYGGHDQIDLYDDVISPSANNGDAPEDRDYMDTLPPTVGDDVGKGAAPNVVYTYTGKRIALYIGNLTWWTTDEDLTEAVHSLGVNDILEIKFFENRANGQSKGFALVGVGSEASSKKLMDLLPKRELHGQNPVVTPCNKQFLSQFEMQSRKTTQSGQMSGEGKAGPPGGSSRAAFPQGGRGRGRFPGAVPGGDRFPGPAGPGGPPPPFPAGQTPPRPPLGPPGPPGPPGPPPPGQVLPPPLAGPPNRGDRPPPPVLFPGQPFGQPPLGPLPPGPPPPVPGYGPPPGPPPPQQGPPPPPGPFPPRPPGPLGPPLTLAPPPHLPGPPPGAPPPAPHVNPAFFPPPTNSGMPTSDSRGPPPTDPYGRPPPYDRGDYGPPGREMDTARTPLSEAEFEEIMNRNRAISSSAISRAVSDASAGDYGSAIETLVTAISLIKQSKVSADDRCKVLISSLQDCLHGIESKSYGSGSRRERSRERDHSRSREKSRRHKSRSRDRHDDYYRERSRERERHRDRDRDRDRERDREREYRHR
UniProt Q9BWT3: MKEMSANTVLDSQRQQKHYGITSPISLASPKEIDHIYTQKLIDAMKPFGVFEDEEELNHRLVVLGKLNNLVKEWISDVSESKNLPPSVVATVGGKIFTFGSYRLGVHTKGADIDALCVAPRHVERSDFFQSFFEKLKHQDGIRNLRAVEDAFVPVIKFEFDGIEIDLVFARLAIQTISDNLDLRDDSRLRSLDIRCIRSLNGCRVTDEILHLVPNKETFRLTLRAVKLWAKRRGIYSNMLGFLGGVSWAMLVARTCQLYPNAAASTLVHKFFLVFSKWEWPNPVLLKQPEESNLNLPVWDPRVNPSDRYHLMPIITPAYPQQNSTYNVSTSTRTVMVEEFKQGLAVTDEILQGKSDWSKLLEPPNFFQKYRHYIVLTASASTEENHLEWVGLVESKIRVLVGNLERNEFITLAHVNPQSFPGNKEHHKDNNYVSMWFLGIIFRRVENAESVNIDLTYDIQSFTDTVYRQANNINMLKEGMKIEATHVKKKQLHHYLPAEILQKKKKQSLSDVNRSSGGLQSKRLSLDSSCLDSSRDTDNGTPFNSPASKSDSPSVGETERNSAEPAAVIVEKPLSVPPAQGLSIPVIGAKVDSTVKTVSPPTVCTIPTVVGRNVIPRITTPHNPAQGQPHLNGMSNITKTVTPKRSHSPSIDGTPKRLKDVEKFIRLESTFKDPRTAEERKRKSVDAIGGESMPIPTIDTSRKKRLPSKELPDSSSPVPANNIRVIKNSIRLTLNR
UniProt Q6NZY4: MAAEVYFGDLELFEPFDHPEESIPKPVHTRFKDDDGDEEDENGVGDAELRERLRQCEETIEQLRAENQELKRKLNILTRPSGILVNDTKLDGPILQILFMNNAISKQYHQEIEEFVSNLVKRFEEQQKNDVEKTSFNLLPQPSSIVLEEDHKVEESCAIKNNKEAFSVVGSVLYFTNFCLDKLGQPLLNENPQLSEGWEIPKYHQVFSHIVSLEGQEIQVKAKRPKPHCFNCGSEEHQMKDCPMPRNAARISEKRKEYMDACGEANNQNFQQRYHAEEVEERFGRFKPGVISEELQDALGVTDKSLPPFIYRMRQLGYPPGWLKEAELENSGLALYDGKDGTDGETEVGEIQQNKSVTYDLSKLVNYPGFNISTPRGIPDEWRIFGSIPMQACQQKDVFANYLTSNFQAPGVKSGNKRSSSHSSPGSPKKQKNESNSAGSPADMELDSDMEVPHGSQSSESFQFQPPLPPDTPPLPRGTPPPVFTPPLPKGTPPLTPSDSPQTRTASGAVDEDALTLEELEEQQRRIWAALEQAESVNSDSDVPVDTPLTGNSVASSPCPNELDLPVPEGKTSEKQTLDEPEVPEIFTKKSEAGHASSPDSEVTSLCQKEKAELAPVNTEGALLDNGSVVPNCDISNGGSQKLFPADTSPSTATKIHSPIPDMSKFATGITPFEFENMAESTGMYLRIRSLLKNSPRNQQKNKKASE

Legend:
Test in all cases: affinity purification with mass spectrometry; Dignam high salt nuclear extracts of HEK-293T cells expressing Flag-HA-ZFC3H1; sequential Flag and HA immunoprecipitations; control HEK-293T sample; interactants with 2 or more peptides and FC > 2
[1] = biological target: Flag-HA-ZFC3H1 (human (endogenous in HEK-293T)) (UniProt O60293)
[2] = biological target: Flag-HA-ZFC3H1 (human (endogenous in HEK-293T)) (UniProt O60293); remark: listed apart in the source
[3] = biological target: T1, Flag-HA-ZFC3H1 (human (endogenous in HEK-293T)), O60293; conditions: remark: other sources report otherwise
T1 chain: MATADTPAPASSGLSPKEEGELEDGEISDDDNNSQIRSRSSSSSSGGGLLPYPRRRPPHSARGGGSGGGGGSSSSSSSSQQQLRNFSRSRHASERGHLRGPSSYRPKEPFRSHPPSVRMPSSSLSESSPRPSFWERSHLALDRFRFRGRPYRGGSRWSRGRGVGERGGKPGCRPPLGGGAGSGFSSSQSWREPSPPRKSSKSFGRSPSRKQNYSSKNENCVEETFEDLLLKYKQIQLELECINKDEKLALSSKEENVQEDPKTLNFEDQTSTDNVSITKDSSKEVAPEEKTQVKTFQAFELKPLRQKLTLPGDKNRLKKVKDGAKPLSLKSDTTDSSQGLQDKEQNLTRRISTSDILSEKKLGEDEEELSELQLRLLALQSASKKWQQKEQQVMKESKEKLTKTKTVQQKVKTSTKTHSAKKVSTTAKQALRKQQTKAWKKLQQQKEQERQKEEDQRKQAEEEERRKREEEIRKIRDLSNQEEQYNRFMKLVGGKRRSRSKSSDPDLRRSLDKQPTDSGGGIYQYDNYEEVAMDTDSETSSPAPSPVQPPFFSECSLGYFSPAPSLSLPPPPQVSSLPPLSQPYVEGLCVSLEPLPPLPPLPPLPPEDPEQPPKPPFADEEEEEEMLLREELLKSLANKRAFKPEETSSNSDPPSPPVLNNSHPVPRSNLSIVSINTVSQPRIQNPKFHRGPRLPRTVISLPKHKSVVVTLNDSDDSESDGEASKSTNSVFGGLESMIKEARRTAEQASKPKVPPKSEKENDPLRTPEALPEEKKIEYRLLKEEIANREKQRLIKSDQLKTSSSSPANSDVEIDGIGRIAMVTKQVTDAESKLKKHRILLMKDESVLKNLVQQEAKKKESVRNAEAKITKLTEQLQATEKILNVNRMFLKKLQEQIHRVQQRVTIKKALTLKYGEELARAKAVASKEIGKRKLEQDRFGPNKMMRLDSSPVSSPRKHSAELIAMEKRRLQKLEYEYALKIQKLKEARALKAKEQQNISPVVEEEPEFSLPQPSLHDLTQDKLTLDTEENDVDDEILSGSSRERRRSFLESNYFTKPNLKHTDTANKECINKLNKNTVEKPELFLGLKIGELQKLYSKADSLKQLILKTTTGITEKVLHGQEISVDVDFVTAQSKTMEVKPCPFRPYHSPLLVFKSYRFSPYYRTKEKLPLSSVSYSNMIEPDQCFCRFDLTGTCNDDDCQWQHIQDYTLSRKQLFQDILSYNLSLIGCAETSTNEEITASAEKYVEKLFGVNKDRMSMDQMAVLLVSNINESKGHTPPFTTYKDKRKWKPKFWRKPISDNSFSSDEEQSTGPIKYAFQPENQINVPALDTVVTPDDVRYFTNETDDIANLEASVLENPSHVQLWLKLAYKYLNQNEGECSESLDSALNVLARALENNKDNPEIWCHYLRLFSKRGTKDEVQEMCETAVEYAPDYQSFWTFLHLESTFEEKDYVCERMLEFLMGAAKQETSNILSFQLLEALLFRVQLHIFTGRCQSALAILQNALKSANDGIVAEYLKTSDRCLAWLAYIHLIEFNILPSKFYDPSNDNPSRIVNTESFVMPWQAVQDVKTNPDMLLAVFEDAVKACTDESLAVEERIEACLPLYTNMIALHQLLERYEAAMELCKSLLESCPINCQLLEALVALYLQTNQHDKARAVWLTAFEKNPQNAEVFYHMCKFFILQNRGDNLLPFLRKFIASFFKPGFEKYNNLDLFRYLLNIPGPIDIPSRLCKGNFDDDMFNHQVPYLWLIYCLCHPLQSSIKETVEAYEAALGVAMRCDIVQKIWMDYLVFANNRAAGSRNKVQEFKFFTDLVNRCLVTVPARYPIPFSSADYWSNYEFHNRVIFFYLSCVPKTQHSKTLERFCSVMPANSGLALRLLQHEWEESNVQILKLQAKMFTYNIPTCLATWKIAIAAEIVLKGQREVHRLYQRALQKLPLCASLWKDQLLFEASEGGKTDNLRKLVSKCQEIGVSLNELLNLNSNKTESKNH

Molecule: PAPα (from UniProt P51003 1-745) (enzyme)
- binding [1]: no binding

B2: PABPN1, Q86U42 1-306 (protein)
chain: MAAAAAAAAAAGAAGGRGSGPGRRRHLVPGAGGEAGEGAPGGAGDYGNGLESEELEPEELLLEPEPEPEPEEEPPRPRAPPGAPGPGPGSGAPGSQEEEEEPGLVEGDPGDGAIEDPELEAIKARVREMEEEAEKLKELQNEVEKQMNMSPPPGNAGPVIMSIEEKMEADARSIYVGNVDYGATAEELEAHFHGCGSVNRVTILCDKFSGHPKGFAYIEFSDKESVRTSLALDESLFRGRQIKVIPKRTNRPGISTTDRGFPRARYRARTTNYNSSRSRFYSGFNSRPRGRVYRGRARATSWYSPY
- binding [3]: binds

B4: ZC3H3 (protein, UniProt Q8IXZ2 1-948)
chain: MEEKEILRRQIRLLQGLIDDYKTLHGNAPAPGTPAASGWQPPTYHSGRAFSARYPRPSRRGYSSHHGPSWRKKYSLVNRPPGPSDPPADHAVRPLHGARGGQPPVPQQHVLERQVQLSQGQNVVIKVKPPSKSGSASASGAQRGSLEEFEETPWSDQRPREGEGEPPRGQLQPSRPTRARGTCSVEDPLLVCQKEPGKPRMVKSVGSVGDSPREPRRTVSESVIAVKASFPSSALPPRTGVALGRKLGSHSVASCAPQLLGDRRVDAGHTDQPVPSGSVGGPARPASGPRQAREASLVVTCRTNKFRKNNYKWVAASSKSPRVARRALSPRVAAENVCKASAGMANKVEKPQLIADPEPKPRKPATSSKPGSAPSKYKWKASSPSASSSSSFRWQSEASSKDHASQLSPVLSRSPSGDRPAVGHSGLKPLSGETPLSAYKVKSRTKIIRRRSSTSLPGDKKSGTSPAATAKSHLSLRRRQALRGKSSPVLKKTPNKGLVQVTTHRLCRLPPSRAHLPTKEASSLHAVRTAPTSKVIKTRYRIVKKTPASPLSAPPFPLSLPSWRARRLSLSRSLVLNRLRPVASGGGKAQPGSPWWRSKGYRCIGGVLYKVSANKLSKTSGQPSDAGSRPLLRTGRLDPAGSCSRSLASRAVQRSLAIIRQARQRREKRKEYCMYYNRFGRCNRGERCPYIHDPEKVAVCTRFVRGTCKKTDGTCPFSHHVSKEKMPVCSYFLKGICSNSNCPYSHVYVSRKAEVCSDFLKGYCPLGAKCKKKHTLLCPDFARRGACPRGAQCQLLHRTQKRHSRRAATSPAPGPSDATARSRVSASHGPRKPSASQRPTRQTPSSAALTAAAVAAPPHCPGGSASPSSSKASSSSSSSSSPPASLDHEAPSLQEAALAAACSNRLCKLPSFISLQSSPSPGAQPRVRAPRAPLTKDSGKPLHIKPRL
- binding [2]: binds

Now from value to molecule:

- binding [1]: binds
Molecule: CPSF6 (from UniProt Q16630 1-551)

- binding [1]: binds
Molecule: polyA polymerase gamma (PAPγ) (from UniProt Q9BWT3 1-736) (enzyme)

- binding [1]: no binding
Molecule: ZCCHC8 (from UniProt Q6NZY4 1-707)

- binding [2]: binds
B1: RBM27 (protein, UniProt Q9P2N5 1-1060)
chain: MLIEDVDALKSWLAKLLEPICDADPSALANYVVALVKKDKPEKELKAFCADQLDVFLQKETSGFVDKLFESLYTKNYLPLLEPVKPEPKPLVQEKEEIKEEVFQEPAEEERDGRKKKYPSPQKTRSESSERRTREKKREDGKWRDYDRYYERNELYREKYDWRRGRSKSRSKSRGLSRSRSRSRGRSKDRDPNRNVEHRERSKFKSERNDLESSYVPVSAPPPNSSEQYSSGAQSIPSTVTVIAPAHHSENTTESWSNYYNNHSSSNSFGRNLPPKRRCRDYDERGFCVLGDLCQFDHGNDPLVVDEVALPSMIPFPPPPPGLPPPPPPGMLMPPMPGPGPGPGPGPGPGPGPGPGPGHSMRLPVPQGHGQPPPSVVLPIPRPPITQSSLINSRDQPGTSAVPNLASVGTRLPPPLPQNLLYTVSERQPMYSREHGAAASERLQLGTPPPLLAARLVPPRNLMGSSIGYHTSVSSPTPLVPDTYEPDGYNPEAPSITSSGRSQYRQFFSRTQTQRPNLIGLTSGDMDVNPRAANIVIQTEPPVPVSINSNITRVVLEPDSRKRAMSGLEGPLTKKPWLGKQGNNNQNKPGFLRKNQYTNTKLEVKKIPQELNNITKLNEHFSKFGTIVNIQVAFKGDPEAALIQYLTNEEARKAISSTEAVLNNRFIRVLWHRENNEQPTLQSSAQLLLQQQQTLSHLSQQHHHLPQHLHQQQVLVAQSAPSTVHGGIQKMMSKPQTSGAYVLNKVPVKHRLGHAGGNQSDASHLLNQSGGAGEDCQIFSTPGHPKMIYSSSNLKTPSKLCSGSKSHDVQEVLKKKQEAMKLQQDMRKKRQEVLEKQIECQKMLISKLEKNKNMKPEERANIMKTLKELGEKISQLKDELKTSSAVSTPSKVKTKTEAQKELLDTELDLHKRLSSGEDTTELRKKLSQLQVEAARLGILPVGRGKTMSSQGRGRGRGRGGRGRGSLNHMVVDHRPKALTVGGFIEEEKEDLLQHFSTANQGPKFKDRRLQISWHKPKVPSISTETEEEEVKEEETETSDLFLPDDDDEDEDEYESRSWRR

- binding [2]: binds
B3: ZC3H14 (protein, UniProt Q6PJT7 1-736)
chain: MEIGTEISRKIRSAIKGKLQELGAYVDEELPDYIMVMVANKKSQDQMTEDLSLFLGNNTIRFTVWLHGVLDKLRSVTTEPSSLKSSDTNIFDSNVPSNKSNFSRGDERRHEAAVPPLAIPSARPEKRDSRVSTSSQESKTTNVRQTYDDGAATRLMSTVKPLREPAPSEDVIDIKPEPDDLIDEDLNFVQENPLSQKKPTVTLTYGSSRPSIEIYRPPASRNADSGVHLNRLQFQQQQNSIHAAKQLDMQSSWVYETGRLCEPEVLNSLEETYSPFFRNNSEKMSMEDENFRKRKLPVVSSVVKVKKFNHDGEEEEEDDDYGSRTGSISSSVSVPAKPERRPSLPPSKQANKNLILKAISEAQESVTKTTNYSTVPQKQTLPVAPRTRTSQEELLAEVVQGQSRTPRISPPIKEEETKGDSVEKNQGTQQRQLLSRLQIDPVMAETLQMSQDYYDMESMVHADTRSFILKKPKLSEEVVVAPNQESGMKTADSLRVLSGHLMQTRDLVQPDKPASPKFIVTLDGVPSPPGYMSDQEEDMCFEGMKPVNQTAASNKGLRGLLHPQQLHLLSRQLEDPNGSFSNAEMSELSVAQKPEKLLERCKYWPACKNGDECAYHHPISPCKAFPNCKFAEKCLFVHPNCKYDAKCTKPDCPFTHVSRRIPVLSPKPAVAPPAPPSSSQLCRYFPACKKMECPFYHPKHCRFNTQCTRPDCTFYHPTINVPPRHALKWIRPQTSE
